Source: PMC8922104

The chains behind the UniProt entries cited, without tags or fusion partners. Where a name states a change or a piece, a line headed by the entry shows the natural chain unless it says otherwise.
UniProt P01106: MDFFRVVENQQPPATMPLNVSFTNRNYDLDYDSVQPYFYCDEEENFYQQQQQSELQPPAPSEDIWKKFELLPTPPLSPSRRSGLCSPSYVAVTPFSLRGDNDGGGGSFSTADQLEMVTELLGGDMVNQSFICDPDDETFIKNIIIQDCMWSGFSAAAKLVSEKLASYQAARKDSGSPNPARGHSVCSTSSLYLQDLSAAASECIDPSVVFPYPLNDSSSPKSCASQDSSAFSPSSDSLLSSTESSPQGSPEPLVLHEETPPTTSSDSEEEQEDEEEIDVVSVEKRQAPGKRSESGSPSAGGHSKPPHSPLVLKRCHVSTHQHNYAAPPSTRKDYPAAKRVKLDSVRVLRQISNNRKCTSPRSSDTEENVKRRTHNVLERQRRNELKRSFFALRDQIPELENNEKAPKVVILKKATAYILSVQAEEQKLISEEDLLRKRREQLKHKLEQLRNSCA
UniProt Q9UNE7: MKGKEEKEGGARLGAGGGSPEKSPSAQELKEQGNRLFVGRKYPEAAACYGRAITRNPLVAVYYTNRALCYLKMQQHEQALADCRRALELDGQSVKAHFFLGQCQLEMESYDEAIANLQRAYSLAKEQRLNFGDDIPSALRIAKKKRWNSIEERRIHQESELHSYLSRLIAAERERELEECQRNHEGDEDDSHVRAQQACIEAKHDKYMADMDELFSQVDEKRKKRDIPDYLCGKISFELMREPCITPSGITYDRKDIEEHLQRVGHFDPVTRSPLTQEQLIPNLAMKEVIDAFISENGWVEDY

Target: HA‐tagged c‐Myc mutant R346A (human) (UniProt P01106)
Assay: co-IP; HEK293T cells transfected with HA-c-Myc or HA-tagged mutants, 48 h later treated with WBC100 (2 uM) or DMSO in the presence of MG-132 (10 uM) for 4 h; NP40 lysis buffer; anti-HA magnetic beads, 4 °C overnight; blot for CHIP

With “E3 ubiquitin ligase CHIP (from UniProt Q9UNE7 1-303) (enzyme)” the binding was “binds”.

Results are given in words; binding and its absence hold for the method and conditions named. In cells and extracts the contact can be indirect. Binding calls can cover weak binding; strength is not graded here.
